Measured values as given in patent US20120135880A1.
No constants are given. Whether binding was seen depends on the method and setting. Some binding calls cover weakened binding; strength is not graded here.

Sequences of proteins named here, by UniProt entry; tags and fusion partners are left off. A change or cut given only in a name is not applied to a line headed by its entry.
UniProt Q9HCN6: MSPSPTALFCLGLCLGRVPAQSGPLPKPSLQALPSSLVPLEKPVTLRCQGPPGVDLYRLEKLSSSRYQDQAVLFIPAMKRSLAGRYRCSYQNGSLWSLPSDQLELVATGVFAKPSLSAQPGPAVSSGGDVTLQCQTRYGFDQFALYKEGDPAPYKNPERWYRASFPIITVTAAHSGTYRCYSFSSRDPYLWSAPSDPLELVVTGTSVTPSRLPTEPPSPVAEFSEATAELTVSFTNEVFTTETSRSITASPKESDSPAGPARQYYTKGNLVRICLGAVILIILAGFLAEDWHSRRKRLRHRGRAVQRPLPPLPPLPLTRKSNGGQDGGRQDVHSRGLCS

Biological target: collagen-binding domain (CBD) of human glycoprotein VI (GPVI), residues Q1-T183, recombinant, refolded from E. coli inclusion bodies (human) (UniProt Q9HCN6)
Assay: sedimentation velocity analytical ultracentrifugation; 6.7 µM GPVI CBD titrated with CRP (0, 1.7, 10, 20, 26, 80, 240 µM); inset: s* against [CRP] with fitted single-site isotherm

binding: binds
Binder: POGPOGPOGPOGPOGPOGPOGPOGPOGPOG (O is hydroxyproline (second residue of every POG triplet)) [collagen-related peptide (CRP), non-crosslinked (POG)10 triple helix]
